Construct, isoform or probe ends are uncertain for at least one entry. Results from cells or extracts need not show a direct contact. At least one verdict rests on a figure or table, not on a statement of the authors.
Molecular target: tyrosine protein kinase-7 (PTK7) (human (CEM and HeLa cells)) (UniProt Q13308)
Assay: flow cytometry on cells
Details: 37 °C, 30 min, protein on the cell surface, label: 5'-FAM, folded or branched DNA

The chains behind the UniProt entries cited, without tags or fusion partners. Residues count along the entry.
UniProt Q13308, 31-1070: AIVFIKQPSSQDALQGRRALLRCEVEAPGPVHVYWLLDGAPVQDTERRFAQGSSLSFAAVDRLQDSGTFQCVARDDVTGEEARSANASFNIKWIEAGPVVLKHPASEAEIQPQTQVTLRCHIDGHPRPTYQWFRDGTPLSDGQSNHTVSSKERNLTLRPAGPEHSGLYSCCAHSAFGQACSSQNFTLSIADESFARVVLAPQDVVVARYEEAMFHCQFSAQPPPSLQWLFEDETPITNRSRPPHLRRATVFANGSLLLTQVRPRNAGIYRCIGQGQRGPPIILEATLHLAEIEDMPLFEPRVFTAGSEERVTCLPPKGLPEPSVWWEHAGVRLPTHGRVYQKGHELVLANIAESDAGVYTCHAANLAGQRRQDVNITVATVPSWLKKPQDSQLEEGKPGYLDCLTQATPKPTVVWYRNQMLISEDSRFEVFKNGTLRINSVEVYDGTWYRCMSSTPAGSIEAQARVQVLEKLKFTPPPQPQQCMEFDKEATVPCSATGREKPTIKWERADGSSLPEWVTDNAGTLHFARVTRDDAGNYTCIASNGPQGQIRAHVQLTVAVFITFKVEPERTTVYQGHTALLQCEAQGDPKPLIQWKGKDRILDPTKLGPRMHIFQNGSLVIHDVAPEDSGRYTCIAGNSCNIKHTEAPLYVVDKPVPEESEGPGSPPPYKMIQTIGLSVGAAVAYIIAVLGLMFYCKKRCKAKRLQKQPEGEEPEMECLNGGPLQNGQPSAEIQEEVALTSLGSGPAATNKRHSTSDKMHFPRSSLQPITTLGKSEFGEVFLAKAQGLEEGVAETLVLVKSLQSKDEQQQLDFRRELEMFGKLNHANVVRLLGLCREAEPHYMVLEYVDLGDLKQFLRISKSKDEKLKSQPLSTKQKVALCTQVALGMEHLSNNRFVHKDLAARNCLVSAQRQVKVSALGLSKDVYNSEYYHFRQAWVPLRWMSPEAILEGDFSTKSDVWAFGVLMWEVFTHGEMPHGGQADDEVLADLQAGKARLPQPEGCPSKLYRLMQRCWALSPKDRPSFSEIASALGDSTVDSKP

## GGTGGTGGAAGGACGTCCACCACCTCCTTCAAAAAAAAATCTAACTGCTGCGCCGCCGGGAAAATACTGTACGGTTAGA [FAM-sgc8c (hairpin-locked sgc8c aptamer)]
CEM cells
  binding result: binds
HeLa cells
  binding result: binds
